Results are given in words; binding and its absence hold for the method and conditions named. Some results given as binding are weak or reduced against the parent protein; the word gives no strength.
Molecular target: CXC chemokine receptor 4 (UniProt P61073)
Assay: FACS; blocking of FITC-12D5 binding to CXCR4-transfected 293 cells

The chains behind the UniProt entries cited, without tags or fusion partners.
UniProt P61073: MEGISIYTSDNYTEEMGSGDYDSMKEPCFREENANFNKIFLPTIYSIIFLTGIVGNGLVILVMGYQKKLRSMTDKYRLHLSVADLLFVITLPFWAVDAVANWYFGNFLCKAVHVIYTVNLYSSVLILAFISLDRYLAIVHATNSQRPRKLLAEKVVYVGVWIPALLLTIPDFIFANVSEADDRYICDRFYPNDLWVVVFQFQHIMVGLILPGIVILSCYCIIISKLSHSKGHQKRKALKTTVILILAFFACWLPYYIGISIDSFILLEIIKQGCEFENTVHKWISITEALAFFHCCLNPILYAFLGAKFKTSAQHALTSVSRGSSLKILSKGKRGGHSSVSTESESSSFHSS

Row | binding | Binder
1 | binds | LSYRCPCRFFGGLKWIQEYLEKALN [Peptide SEQ ID NO:6 (SDF-1 amino acids 5-14 and 55-67 linked by (Gly)2)]
2 | binds | LSYRCPCRFFGGGGLKWIQEYLEKALN [Peptide SEQ ID NO:4 (SDF-1 amino acids 5-14 and 55-67 linked by (Gly)4)]
3 | binds | LSYRCPCRFFKKKKLKWIQEYLEKALN [Peptide SEQ ID NO:7 (SDF-1 amino acids 5-14 and 55-67 linked by (Lys)4)]
